# Assay results published in the supplement of paper PMC8728848.
# Some of the results follow.
# What was measured:
# Assay in all cases: glycan array binding signal (z-score within array); higher = stronger binding
# Settings in all cases: glycan notation: IUPAC condensed, linker removed
# Gal(a1-3)Gal(b1-3)GlcNAc = molecular target: Gal(a1-3)Gal(b1-3)GlcNAc
# Method in brief: (§1)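 Columns mapping to the same glycan were averaged after glycan names were converted to IUPAC-condensed notation. The data come from 3228 arrays in the Consortium for Functional Glycomics database, limited to those with an available protein sequence. Binding is reported as a within-array Z-score averaged across arrays of one protein sequence and across linkers.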
# [1] = molecular target: Gal(a1-3)Gal(b1-3)GlcNAc(b1-2)Man(a1-3)[Gal(a1-3)Gal(b1-3)GlcNAc(b1-2)Man(a1-6)]Man(b1-4)GlcNAc(b1-4)GlcNAc
# Method in brief: as §1
# [2] = molecular target: Gal(a1-3)Gal(b1-3)GlcNAc(b1-3)GalNAc
# Method in brief: as §1
# [3] = molecular target: Gal(a1-3)Gal(b1-3)GlcNAc(b1-6)GalNAc
# Method in brief: as §1
# [4] = molecular target: Gal(a1-3)Gal(b1-3)[Fuc(a1-4)]GlcNAc(b1-2)Man(a1-3)[Gal(a1-3)Gal(b1-3)[Fuc(a1-4)]GlcNAc(b1-2)Man(a1-6)]Man(b1-4)GlcNAc(b1-4)GlcNAc
# Method in brief: as §1
# Gal(a1-3)Gal(b1-4)Glc = molecular target: Gal(a1-3)Gal(b1-4)Glc
# Method in brief: as §1
# Gal(a1-3)Gal(b1-4)GlcNAc = molecular target: Gal(a1-3)Gal(b1-4)GlcNAc
# Method in brief: as §1
# [5] = molecular target: Gal(a1-3)Gal(b1-4)GlcNAc(b1-3)GalNAc
# Method in brief: as §1
# [6] = molecular target: Gal(a1-3)Gal(b1-4)GlcNAc(b1-6)GalNAc
# Method in brief: as §1
# [7] = molecular target: Gal(a1-3)Gal(b1-4)[Fuc(a1-3)]GlcNAc
# Method in brief: as §1
# [8] = molecular target: Gal(a1-3)Gal(b1-4)[Fuc(a1-3)]GlcNAc(b1-2)Man(a1-3)[Gal(a1-3)Gal(b1-4)[Fuc(a1-3)]GlcNAc(b1-2)Man(a1-6)]Man(b1-4)GlcNAc(b1-4)GlcNAc
# Method in brief: as §1
# Gal(a1-3)GalNAc = molecular target: Gal(a1-3)GalNAc
# Method in brief: as §1
# [9] = molecular target: Gal(a1-3)[Gal(a1-4)]Gal(b1-4)GlcNAc
# Method in brief: as §1
# [10] = molecular target: Gal(a1-4)Gal(b1-3)GlcNAc(b1-2)Man(a1-3)[Gal(a1-4)Gal(b1-3)GlcNAc(b1-2)Man(a1-6)]Man(b1-4)GlcNAc(b1-4)GlcNAc
# Method in brief: as §1
# Gal(a1-4)Gal(b1-4)Glc = molecular target: Gal(a1-4)Gal(b1-4)Glc
# Method in brief: as §1
# Gal(a1-4)Gal(b1-4)GlcNAc = molecular target: Gal(a1-4)Gal(b1-4)GlcNAc
# Method in brief: as §1
# [11] = molecular target: Gal(a1-4)Gal(b1-4)GlcNAc(b1-2)Man(a1-3)[Gal(a1-4)Gal(b1-4)GlcNAc(b1-2)Man(a1-6)]Man(b1-4)GlcNAc(b1-4)GlcNAc
# Method in brief: as §1
# [12] = molecular target: Gal(a1-4)Gal(b1-4)GlcNAc(b1-3)Gal(b1-4)Glc
# Method in brief: as §1
# Gal(a1-4)GlcNAc = molecular target: Gal(a1-4)GlcNAc
# Method in brief: as §1
# Gal(a1-6)Glc = molecular target: Gal(a1-6)Glc
# Method in brief: as §1
# Gal(b1-2)Gal = molecular target: Gal(b1-2)Gal
# Method in brief: as §1
# Gal(b1-3)Gal = molecular target: Gal(b1-3)Gal
# Method in brief: as §1
# Gal(b1-3)Gal(b1-4)GlcNAc = molecular target: Gal(b1-3)Gal(b1-4)GlcNAc
# Method in brief: as §1
# [13] = molecular target: Gal(b1-3)Gal(b1-4)GlcNAc(b1-2)Man(a1-3)[Gal(b1-3)Gal(b1-4)GlcNAc(b1-2)Man(a1-6)]Man(b1-4)GlcNAc(b1-4)GlcNAc
# Method in brief: as §1
# Gal(b1-3)GalNAc = molecular target: Gal(b1-3)GalNAc
# Method in brief: as §1
# [14] = molecular target: Gal(b1-3)GalNAc(a1-3)[Fuc(a1-2)]Gal(b1-4)Glc
# Method in brief: as §1
# [15] = molecular target: Gal(b1-3)GalNAc(a1-3)[Fuc(a1-2)]Gal(b1-4)GlcNAc
# Method in brief: as §1
# [16] = molecular target: Gal(b1-3)GalNAc(b1-3)Gal(a1-4)Gal(b1-4)Glc
# Method in brief: as §1
# [17] = molecular target: Gal(b1-3)GalNAc(b1-4)Gal(b1-4)Glc
# Method in brief: as §1
# [18] = molecular target: Gal(b1-3)GalNAc(b1-4)[Neu5Ac(a2-3)]Gal(b1-4)Glc
# Method in brief: as §1
# Gal(b1-3)GlcNAc = molecular target: Gal(b1-3)GlcNAc
# Method in brief: as §1
# [19] = molecular target: Gal(b1-3)GlcNAc(a1-3)Gal(b1-4)GlcNAc
# Method in brief: as §1
# [20] = molecular target: Gal(b1-3)GlcNAc(a1-6)Gal(b1-4)GlcNAc
# Method in brief: as §1
# [21] = molecular target: Gal(b1-3)GlcNAc(b1-2)Man(a1-3)[Gal(b1-3)GlcNAc(b1-2)Man(a1-6)]Man(b1-4)GlcNAc(b1-4)GlcNAc
# Method in brief: as §1
# [22] = molecular target: Gal(b1-3)GlcNAc(b1-2)Man(a1-3)[Gal(b1-3)GlcNAc(b1-2)Man(a1-6)]Man(b1-4)GlcNAc(b1-4)[Fuc(a1-6)]GlcNAc
# Method in brief: as §1
# [23] = molecular target: Gal(b1-3)GlcNAc(b1-2)Man(a1-3)[GlcNAc(b1-4)][Gal(b1-3)GlcNAc(b1-2)Man(a1-6)]Man(b1-4)GlcNAc(b1-4)GlcNAc
# Method in brief: as §1
# [24] = molecular target: Gal(b1-3)GlcNAc(b1-2)[Gal(b1-3)GlcNAc(b1-6)]Man(a1-6)[Gal(b1-3)GlcNAc(b1-2)Man(a1-3)]Man(b1-4)GlcNAc(b1-4)GlcNAc
# Method in brief: as §1
# [25] = molecular target: Gal(b1-3)GlcNAc(b1-3)Gal(b1-3)GlcNAc
# Method in brief: as §1
# [26] = molecular target: Gal(b1-3)GlcNAc(b1-3)Gal(b1-4)Glc
# Method in brief: as §1
# [27] = molecular target: Gal(b1-3)GlcNAc(b1-3)Gal(b1-4)GlcNAc
# Method in brief: as §1
# [28] = molecular target: Gal(b1-3)GlcNAc(b1-3)Gal(b1-4)GlcNAc(b1-6)[Gal(b1-3)GlcNAc(b1-3)]Gal(b1-4)Glc
# Method in brief: as §1
# [29] = molecular target: Gal(b1-3)GlcNAc(b1-3)Gal(b1-4)[Fuc(a1-3)]GlcNAc(b1-6)[Gal(b1-3)GlcNAc(b1-3)]Gal(b1-4)Glc
# Method in brief: as §1
# [30] = molecular target: Gal(b1-3)GlcNAc(b1-3)GalNAc
# Method in brief: as §1
# [31] = molecular target: Gal(b1-3)GlcNAc(b1-6)Gal(b1-4)GlcNAc
# Method in brief: as §1
# [32] = molecular target: Gal(b1-3)GlcNAc(b1-6)GalNAc
# Method in brief: as §1
binder,measurement,setting,value
Intelectin-1a (Mus musculus) (protein) AEWSHPQFEKAEENLDTNRWGNSFFSSLPRSCKEIKQEHTKAQDGLYFLRTKNGVIYQTFCDMTTAGGGWTLVASVHENNMRGKCTVGDRWSSQQGNRADYPEGDGNWANYNTFGSAEAATSDDYKNPGYFDIQAENLGIWHVPNKSPLHNWRKSSLLRYRTFTGFLQHLGHNLFGLYKKYPVKYGEGKCWTDNGPALPVVYDFGDARKTASYYSPSGQREFTAGYVQFRVFNNERAASALCAGVRVTGCNTEHHCIGGGGFFPEGNPVQCGDFASFDWDGYGTHNGYSSSRKITEAAVLLFYR,glycan array binding signal (z-score),Gal(a1-3)Gal(b1-3)GlcNAc,-0.588
same,glycan array binding signal (z-score),[1],2.64
same,glycan array binding signal (z-score),[2],-0.09
same,glycan array binding signal (z-score),[3],0.396
same,glycan array binding signal (z-score),[4],-0.757
same,glycan array binding signal (z-score),Gal(a1-3)Gal(b1-4)Glc,-0.214
same,glycan array binding signal (z-score),Gal(a1-3)Gal(b1-4)GlcNAc,0.098
same,glycan array binding signal (z-score),[5],-1.7
same,glycan array binding signal (z-score),[6],-0.578
same,glycan array binding signal (z-score),[7],0.274
same,glycan array binding signal (z-score),[8],2.76
same,glycan array binding signal (z-score),Gal(a1-3)GalNAc,-0.697
same,glycan array binding signal (z-score),[9],0.625
same,glycan array binding signal (z-score),[10],-1.61
same,glycan array binding signal (z-score),Gal(a1-4)Gal(b1-4)Glc,0.347
same,glycan array binding signal (z-score),Gal(a1-4)Gal(b1-4)GlcNAc,-0.027
same,glycan array binding signal (z-score),[11],-0.995
same,glycan array binding signal (z-score),[12],0.434
same,glycan array binding signal (z-score),Gal(a1-4)GlcNAc,-0.186
same,glycan array binding signal (z-score),Gal(a1-6)Glc,2.06
same,glycan array binding signal (z-score),Gal(b1-2)Gal,0.735
same,glycan array binding signal (z-score),Gal(b1-3)Gal,0.171
same,glycan array binding signal (z-score),Gal(b1-3)Gal(b1-4)GlcNAc,0.187
same,glycan array binding signal (z-score),[13],1.66
same,glycan array binding signal (z-score),Gal(b1-3)GalNAc,-0.611
same,glycan array binding signal (z-score),[14],1.24
same,glycan array binding signal (z-score),[15],0.686
same,glycan array binding signal (z-score),[16],-0.779
same,glycan array binding signal (z-score),[17],-0.48
same,glycan array binding signal (z-score),[18],-0.738
same,glycan array binding signal (z-score),Gal(b1-3)GlcNAc,0.341
same,glycan array binding signal (z-score),[19],-0.63
same,glycan array binding signal (z-score),[20],-0.798
same,glycan array binding signal (z-score),[21],1.7
same,glycan array binding signal (z-score),[22],-1.01
same,glycan array binding signal (z-score),[23],-0.573
same,glycan array binding signal (z-score),[24],-0.178
same,glycan array binding signal (z-score),[25],-0.407
same,glycan array binding signal (z-score),[26],0.971
same,glycan array binding signal (z-score),[27],-1.33
same,glycan array binding signal (z-score),[28],2.74
same,glycan array binding signal (z-score),[29],0.979
same,glycan array binding signal (z-score),[30],-0.411
same,glycan array binding signal (z-score),[31],-0.207
same,glycan array binding signal (z-score),[32],0.883
